Test results as given in PubChem BioAssay (EPA / NIEHS).
The inconclusive results got no clear call from the source; some entries with a clear call stand among them for comparison. Potencies beside an inconclusive call are fits to weak or partial responses and may not hold up. Calls of active or inactive are those of the source. How the source made its calls: active means hit-call score of the fitted dose curve at least 0.9, where 1 is the maximum; inconclusive means response in the unintended direction; inactive means score below 0.9.

experiment: ATG_M_19_TRANS: Attagene TRANS-FACTORIAL HepG2 Assay for M19 Transcription Factor (Internal Marker) (AID 2282974); details: HepG2 Attagene TRANS-FACTORIAL M19 internal marker reporter
Protocol: ATG_TRANS is a cell-based, multiplexed-readout assay that uses HepG2, a human liver cell line, with measurements taken at 24 hours after chemical dosing in a 24-well plate.ATG_M_19_TRANS is one of 30 assay component(s) measured or calculated from the ATG_TRANS assay. It is designed to make measurements of mRNA induction, a form of inducible reporter, as detected with fluorescence intensity signals by Reverse transcription polymerase chain reaction (RT-PCR) and Capillary electrophoresis technology.Data from the assay component ATG_M_19_TRANS was analyzed into 1 assay endpoint. This assay endpoint, ATG_M_19_TRANS, was analyzed in the positive analysis fitting direction relative to DMSO as the negative control and baseline of activity. Using a type of inducible reporter, measures of mRNA for gain-of-signal activity can be used to understand the background control at the transcription factor-level as they relate to the gene . Furthermore, this assay endpoint can be referred to as a secondary readout, because this assay has produced multiple assay endpoints where this one serves a background control function. To generalize the intended target to other relatable targets, this assay endpoint is annotated to the background measurement intended target family, where the subfamily is internal marker.
Human liver HepG2 cells are transiently transfected with multiple reporter transcription units (MRTUs) in 6-well plates using FuGene 6 reagent (Roche; 3 ml FuGene/1 mg DNA). The MRTU constructs are regulated by a cis-regulating element (promoter). […] A major difference between the CIS and TRANS system is that in CIS activities of endogenous TFs are measured, whereas the TRANS assay evaluates changes in activities of exogenous, chimeric NR-Gal4 proteins. […] At the end of 24 hour incubation, total RNA was isolated using TriZol reagent (Invitrogen). The isolated RNA is then reverse-transcribed using oligo(dT) primer and Mo-MLV reverse transcriptase (Invitrogen) with DNAse I (Ambion) treatment for 30 min. The one-tenth of the produced cDNA was amplified by PCR using Taq DNA polymerase (Invitrogen) and two reporter sequence-specific primers. The PCR products were fluorescently labeled by primer extension with 6-arboxyfluorescein (6-FAM) 5'-labeled reporter sequence-specific primer (2 min at 95 C, 20 s at 68 C and 10 min at 72 C) and these products were digested with 5U of HpaI (New England Biolabs) for 2h at 37 C. The fragments were purified using Qiaquick PCR columns (Qiagen), analyzed on an ABI 3130xL genetic analyzer (Applied Biosystems) with peak positions identified by using a set of X-rhodamine (ROX)-labeled MapMarker1000 molecular weight standards (BioVentures). The raw capillary electrophoresis data was processed using Attagraph software (Attagene).

AC50, inconclusive:
Cc1cc(C)c(O)c(C(C)(C)C)c1 100 µM, CCCCCCCC(OC)OC 0.0367 µM, CC(C)OC(=O)c1ccccc1C(=O)OC(C)C 24.3 µM, c1ccc(CN(Cc2ccccc2)Cc2ccccc2)cc1 170 µM, OCCC(F)(F)C(F)(F)C(F)(F)C(F)(F)C(F)(F)C(F)(F)C(F)(F)C(F)(F)F 249 µM, OC[C@H]1O[C@@](CO)(O[C@H]2O[C@H](CO)[C@@H](O)[C@H](O)[C@H]2O)[C@@H](O)[C@@H]1O 100 µM, CC(C)(C)C1=CC(=O)C(C(C)(C)C)=CC1=O 50 µM, COC(=O)[C@]1(C)CCC[C@@]2(C)[C@H]1CC=C1C=C(C(C)C)CC[C@@H]12 171 µM, NS(=O)(=O)C(F)(F)C(F)(F)C(F)(F)C(F)(F)C(F)(F)C(F)(F)F 150 µM, COCC1CCC(CO)CC1 (stereo not given) 103 µM, COC=O 8.35 µM, COc1cccc(OC)c1O 100 µM, CCCCN(CCO)CCO 26.7 µM, CCOC(=O)C1CC(=O)C(=C(O)C2CC2)C(=O)C1 (stereo not given) 100 µM, OCC(F)(F)C(F)(F)C(F)(F)F 150 µM, C[N+](C)(CCCNS(=O)(=O)CCC(F)(F)C(F)(F)C(F)(F)C(F)(F)C(F)(F)C(F)(F)F)CC(=O)[O-] 0.05 µM, COC(F)(F)C(F)(C(F)(F)F)C(F)(F)F 150 µM, CC(=O)OCCC(C)C 100 µM, Oc1cccc2ccccc12 177 µM

outcome, inactive:
CC1=NC(C)OC1C (stereo not given), O=C(OCCOCCOC(=O)c1ccccc1)c1ccccc1, CC(O)C(C)O (stereo not given), OCCC(F)(F)C(F)(F)C(F)(F)C(F)(F)C(F)(F)C(F)(F)C(F)(F)C(F)(F)F, CCC(C)(C)C1CCC(OC)CC1 (stereo not given), CC=CC=CCOC(=O)C(C)C, Cc1ncc([N+](=O)[O-])n1C, O=c1[nH]nc(-c2ccc([N+](=O)[O-])o2)o1, C=CC(=O)OCCCCCCCCCC, CCCN(C1CCN(C(=O)C2CCNCC2)CC1)[C@@H]1CCc2ccc(OC)cc2C1, CCCCOCC(C)OCC(C)O (stereo not given), CCOCCOCCOCC, CCOc1ccc(NC(=O)CC(C)=O)cc1, COC(CC(C)CCCC(C)(C)O)OC (stereo not given), CCCCCc1cccc(=O)o1, CC1C(C)(C)C2=C(C(=O)CCC2)C1(C)C (stereo not given), OCC(F)(F)C(F)(F)C(F)(F)F, CCCCCCCCCCCC(=O)OC[C@@H](O)[C@H]1OC[C@H](O)[C@H]1O, CCOC(C)=O, CCCCCC(C=O)=Cc1ccccc1, NNC(=O)OCc1ccccc1
